Laboratory results published in the supplement of paper PMC10849652.
The list shows a part of the results.

Chains of the proteins cited; added tags and fusions are not shown. Lines headed by an entry give the natural chain unless they say otherwise; changes in a name come on top.
UniProt P40227, whole entry, looked up: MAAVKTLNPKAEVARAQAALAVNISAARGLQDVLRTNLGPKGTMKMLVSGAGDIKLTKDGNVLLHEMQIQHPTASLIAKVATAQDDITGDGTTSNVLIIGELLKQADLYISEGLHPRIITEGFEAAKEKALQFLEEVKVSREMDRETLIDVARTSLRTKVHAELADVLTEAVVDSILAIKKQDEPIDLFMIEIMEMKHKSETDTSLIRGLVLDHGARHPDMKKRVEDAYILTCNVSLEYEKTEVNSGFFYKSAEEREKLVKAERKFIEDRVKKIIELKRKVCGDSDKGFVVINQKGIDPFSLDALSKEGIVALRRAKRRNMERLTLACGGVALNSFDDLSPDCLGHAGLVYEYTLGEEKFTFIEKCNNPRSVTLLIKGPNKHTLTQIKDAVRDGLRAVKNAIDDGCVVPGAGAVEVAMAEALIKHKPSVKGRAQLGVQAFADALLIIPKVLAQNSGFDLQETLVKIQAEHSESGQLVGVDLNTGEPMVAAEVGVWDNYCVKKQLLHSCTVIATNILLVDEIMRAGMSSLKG
UniProt P04040: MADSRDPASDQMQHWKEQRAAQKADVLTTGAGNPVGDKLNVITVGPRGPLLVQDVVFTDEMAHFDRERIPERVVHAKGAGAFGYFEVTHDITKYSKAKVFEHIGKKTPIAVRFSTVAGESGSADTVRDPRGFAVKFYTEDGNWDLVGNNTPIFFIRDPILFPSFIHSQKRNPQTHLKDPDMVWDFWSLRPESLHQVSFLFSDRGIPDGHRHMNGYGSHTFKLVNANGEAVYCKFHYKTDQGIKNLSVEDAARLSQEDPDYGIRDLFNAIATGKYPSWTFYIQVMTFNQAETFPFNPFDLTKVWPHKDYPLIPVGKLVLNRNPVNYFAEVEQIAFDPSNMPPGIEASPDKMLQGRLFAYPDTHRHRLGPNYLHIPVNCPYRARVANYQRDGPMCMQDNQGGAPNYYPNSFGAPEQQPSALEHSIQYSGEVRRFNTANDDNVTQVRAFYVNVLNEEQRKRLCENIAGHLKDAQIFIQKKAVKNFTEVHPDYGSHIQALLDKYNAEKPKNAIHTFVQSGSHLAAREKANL
UniProt Q08722, whole entry, looked up: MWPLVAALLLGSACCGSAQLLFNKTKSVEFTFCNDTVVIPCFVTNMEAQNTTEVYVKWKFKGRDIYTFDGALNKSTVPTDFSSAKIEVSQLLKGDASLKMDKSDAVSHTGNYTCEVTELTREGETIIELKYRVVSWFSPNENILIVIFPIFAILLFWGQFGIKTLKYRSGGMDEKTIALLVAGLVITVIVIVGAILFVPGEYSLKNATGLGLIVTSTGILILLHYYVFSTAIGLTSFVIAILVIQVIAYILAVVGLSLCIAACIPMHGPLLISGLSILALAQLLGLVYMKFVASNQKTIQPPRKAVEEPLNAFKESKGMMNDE
UniProt O95810: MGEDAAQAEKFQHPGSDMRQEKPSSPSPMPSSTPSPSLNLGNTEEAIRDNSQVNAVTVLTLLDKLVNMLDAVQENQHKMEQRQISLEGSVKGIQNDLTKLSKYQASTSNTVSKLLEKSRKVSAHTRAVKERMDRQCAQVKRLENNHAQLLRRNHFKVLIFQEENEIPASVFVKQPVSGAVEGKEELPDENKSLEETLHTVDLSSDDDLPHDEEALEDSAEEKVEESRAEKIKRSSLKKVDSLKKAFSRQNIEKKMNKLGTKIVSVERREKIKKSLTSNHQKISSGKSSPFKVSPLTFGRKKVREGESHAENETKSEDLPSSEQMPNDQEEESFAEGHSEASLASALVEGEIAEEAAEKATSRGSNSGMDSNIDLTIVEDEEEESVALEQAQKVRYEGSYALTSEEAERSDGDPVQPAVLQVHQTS
UniProt O14618: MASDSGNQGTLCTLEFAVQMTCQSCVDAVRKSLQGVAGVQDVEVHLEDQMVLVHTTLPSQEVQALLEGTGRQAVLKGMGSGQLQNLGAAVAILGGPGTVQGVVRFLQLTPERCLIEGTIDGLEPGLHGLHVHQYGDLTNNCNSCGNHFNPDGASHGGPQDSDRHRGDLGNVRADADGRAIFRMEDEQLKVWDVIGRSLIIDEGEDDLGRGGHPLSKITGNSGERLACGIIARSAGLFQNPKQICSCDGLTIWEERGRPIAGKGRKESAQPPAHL
UniProt P08174: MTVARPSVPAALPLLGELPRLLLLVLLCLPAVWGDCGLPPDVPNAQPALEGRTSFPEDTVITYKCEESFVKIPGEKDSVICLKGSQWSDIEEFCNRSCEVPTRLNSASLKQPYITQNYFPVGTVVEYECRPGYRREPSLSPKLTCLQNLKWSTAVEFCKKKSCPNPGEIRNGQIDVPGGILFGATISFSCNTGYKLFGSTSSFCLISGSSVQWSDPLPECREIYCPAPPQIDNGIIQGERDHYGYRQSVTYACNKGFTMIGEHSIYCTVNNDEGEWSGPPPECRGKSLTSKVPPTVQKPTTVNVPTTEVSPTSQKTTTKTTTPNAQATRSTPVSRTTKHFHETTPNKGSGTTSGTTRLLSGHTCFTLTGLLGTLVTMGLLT
UniProt Q3V6T2: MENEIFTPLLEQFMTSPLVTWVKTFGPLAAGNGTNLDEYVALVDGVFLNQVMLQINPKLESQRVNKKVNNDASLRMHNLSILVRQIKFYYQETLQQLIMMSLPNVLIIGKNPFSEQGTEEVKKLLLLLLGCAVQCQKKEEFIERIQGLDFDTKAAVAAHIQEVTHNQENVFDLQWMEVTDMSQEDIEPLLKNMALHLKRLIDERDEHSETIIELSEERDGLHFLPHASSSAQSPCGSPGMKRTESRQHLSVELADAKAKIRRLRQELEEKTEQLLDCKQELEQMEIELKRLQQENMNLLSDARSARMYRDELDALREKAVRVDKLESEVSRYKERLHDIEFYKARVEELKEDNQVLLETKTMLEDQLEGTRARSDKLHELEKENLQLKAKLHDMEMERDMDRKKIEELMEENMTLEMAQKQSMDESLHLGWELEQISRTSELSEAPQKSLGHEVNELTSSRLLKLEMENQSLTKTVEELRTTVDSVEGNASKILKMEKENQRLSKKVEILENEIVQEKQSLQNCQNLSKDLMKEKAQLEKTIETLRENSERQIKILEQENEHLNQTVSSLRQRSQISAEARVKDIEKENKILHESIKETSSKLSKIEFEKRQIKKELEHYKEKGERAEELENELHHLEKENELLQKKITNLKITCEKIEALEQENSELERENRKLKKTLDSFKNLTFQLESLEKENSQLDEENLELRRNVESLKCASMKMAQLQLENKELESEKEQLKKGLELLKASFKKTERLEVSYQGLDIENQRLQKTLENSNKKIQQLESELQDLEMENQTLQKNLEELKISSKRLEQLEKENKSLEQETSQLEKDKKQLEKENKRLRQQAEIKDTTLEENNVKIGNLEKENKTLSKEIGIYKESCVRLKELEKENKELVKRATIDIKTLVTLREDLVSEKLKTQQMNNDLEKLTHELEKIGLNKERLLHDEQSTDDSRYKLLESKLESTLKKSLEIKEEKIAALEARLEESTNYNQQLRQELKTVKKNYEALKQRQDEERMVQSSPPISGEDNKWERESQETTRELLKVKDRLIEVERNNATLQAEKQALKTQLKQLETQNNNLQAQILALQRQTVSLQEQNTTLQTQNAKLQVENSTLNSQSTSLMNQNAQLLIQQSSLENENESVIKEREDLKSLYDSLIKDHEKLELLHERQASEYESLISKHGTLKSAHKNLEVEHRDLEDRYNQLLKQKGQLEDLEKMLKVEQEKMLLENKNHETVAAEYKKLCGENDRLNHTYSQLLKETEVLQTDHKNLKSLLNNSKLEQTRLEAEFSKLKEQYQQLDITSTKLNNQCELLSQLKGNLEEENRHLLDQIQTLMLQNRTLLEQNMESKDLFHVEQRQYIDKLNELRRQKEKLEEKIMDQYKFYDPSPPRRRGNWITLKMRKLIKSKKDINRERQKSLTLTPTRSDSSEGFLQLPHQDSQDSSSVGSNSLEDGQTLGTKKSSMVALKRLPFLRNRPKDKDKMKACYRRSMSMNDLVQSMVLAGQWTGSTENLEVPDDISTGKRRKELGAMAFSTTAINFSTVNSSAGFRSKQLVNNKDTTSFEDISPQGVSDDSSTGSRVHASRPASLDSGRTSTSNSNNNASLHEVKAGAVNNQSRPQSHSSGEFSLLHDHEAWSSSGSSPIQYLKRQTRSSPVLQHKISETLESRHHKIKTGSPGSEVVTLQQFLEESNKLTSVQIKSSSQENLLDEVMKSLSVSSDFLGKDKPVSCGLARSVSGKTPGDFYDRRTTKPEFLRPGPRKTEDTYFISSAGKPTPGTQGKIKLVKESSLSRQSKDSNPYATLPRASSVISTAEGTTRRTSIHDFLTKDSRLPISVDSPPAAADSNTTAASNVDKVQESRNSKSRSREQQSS
UniProt Q96ER9: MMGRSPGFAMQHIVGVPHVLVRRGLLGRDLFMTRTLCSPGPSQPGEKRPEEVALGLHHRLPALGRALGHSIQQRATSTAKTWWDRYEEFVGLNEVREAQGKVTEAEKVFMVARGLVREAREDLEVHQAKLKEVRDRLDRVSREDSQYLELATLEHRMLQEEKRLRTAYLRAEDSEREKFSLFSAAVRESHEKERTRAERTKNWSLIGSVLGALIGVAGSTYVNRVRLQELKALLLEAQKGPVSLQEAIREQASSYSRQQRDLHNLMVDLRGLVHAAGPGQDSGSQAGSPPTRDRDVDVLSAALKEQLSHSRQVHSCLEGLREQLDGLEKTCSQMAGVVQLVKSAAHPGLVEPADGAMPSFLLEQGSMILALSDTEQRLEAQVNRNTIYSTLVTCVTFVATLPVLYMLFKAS
UniProt P42575: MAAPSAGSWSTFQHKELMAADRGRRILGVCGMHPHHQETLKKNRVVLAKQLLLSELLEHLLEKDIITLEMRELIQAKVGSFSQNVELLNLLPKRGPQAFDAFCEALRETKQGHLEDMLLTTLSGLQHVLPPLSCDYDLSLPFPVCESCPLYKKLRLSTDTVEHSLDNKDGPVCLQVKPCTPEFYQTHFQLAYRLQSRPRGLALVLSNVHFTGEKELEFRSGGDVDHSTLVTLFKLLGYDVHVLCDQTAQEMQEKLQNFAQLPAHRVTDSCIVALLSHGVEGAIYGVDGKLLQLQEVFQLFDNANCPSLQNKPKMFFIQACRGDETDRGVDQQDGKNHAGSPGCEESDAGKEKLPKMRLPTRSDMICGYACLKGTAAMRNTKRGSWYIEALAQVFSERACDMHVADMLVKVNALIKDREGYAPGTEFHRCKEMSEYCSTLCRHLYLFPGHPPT
UniProt O95400: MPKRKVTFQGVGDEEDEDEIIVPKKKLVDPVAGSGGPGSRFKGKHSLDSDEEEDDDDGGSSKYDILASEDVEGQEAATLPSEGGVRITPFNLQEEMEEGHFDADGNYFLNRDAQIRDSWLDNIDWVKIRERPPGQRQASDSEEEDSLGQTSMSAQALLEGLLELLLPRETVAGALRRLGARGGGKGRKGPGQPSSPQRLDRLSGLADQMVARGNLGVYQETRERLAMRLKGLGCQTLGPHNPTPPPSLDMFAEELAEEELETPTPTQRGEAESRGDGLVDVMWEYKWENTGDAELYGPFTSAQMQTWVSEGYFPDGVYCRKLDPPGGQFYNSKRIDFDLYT
UniProt O75909: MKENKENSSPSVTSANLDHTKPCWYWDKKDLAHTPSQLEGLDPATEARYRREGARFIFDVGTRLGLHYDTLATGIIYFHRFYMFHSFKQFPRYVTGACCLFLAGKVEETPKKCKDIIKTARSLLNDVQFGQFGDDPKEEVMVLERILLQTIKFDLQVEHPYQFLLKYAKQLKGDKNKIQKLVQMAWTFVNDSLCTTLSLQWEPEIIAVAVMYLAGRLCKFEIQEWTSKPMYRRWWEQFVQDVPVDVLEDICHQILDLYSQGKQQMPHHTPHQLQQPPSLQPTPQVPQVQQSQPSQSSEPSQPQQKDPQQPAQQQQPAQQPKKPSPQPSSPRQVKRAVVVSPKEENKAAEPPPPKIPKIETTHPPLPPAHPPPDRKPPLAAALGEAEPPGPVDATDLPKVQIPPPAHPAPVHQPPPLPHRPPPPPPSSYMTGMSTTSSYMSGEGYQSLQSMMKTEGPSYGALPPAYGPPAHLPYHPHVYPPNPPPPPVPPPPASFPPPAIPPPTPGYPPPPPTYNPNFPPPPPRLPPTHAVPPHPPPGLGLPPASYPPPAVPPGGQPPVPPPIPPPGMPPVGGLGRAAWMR
UniProt Q8IVM0: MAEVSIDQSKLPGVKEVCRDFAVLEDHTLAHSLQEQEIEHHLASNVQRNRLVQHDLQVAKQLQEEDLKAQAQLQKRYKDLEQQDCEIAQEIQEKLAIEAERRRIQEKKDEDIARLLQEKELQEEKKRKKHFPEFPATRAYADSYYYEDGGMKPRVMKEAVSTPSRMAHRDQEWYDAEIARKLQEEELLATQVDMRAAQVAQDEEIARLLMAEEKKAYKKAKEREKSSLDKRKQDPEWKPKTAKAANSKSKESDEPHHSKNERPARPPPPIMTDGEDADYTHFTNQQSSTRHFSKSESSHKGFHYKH

Experiments:
Test in all cases: log2 fold change, soluble protein after heating vs DMSO (PISA); higher = thermal stabilisation; K562 lysate, 10 uM; active = over 0.2 and 3.5 SD of the protein, either way, in both replicates (recomputed)
[1] = compound: C#Cc1cccc(Nc2ncnc3cc(OCCOC)c(OCCOC)cc23)c1 [erlotinib]
Method in brief: (§1)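 Thermal stability, expressed as log-two fold change relative to solvent controls, is given from duplicates. Crude K562 extract in PBS pH 7.4 with 1 mM MgCl2, at 1 mg/mL protein, was treated with 10 μM compound for 30 min and heated in aliquots for 3 min across 48°C-58°C. After pooling, adjustment to 0.5% NP-40 at 4°C and centrifugation at 21,000xg for 90 min, supernatant protein was measured by TMTpro 16plex LC-MS/MS with channel sums equalised.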

[2] = compound: C/C(=N\NC(=O)C1=CC(=CC=C1)S(=O)(=O)N2CCOCC2)/C3=C(C=CC(=C3)Cl)O
Method in brief: as §1

[3] = compound: C1=CC(=CC=C1C2=NC3=C(N2)C=C(C=C3)C(=O)N)OC4=CC=C(C=C4)Cl
Method in brief: as §1

[4] = compound: C1=CC2=C(C=CC(=C2)/C=C\3/C(=O)NC(=NCC4=CC=CS4)S3)N=C1
Method in brief: as §1

[5] = compound: C1=CC2=NC=CN=C2C=C1/C=C/3\C(=O)NC(=O)S3
Method in brief: as §1

[6] = compound: C1=CC=C(C=C1)C2=NC(=C(N2)C3=CC=NC=C3)C4=CC(=C(C=C4)Cl)O
Method in brief: as §1

[7] = compound: C1=CC=C2C(=C1)C3=NNC4=CC=CC(=C43)C2=O
Method in brief: as §1

[8] = compound: C1CCN(C1)C(=O)NC2=CC=CC(=C2)NC3=NC=C(C(=N3)NCCC4=CN=CN4)Br
Method in brief: as §1

[9] = compound: C1CN(CCC1(CC2=CC=C(C=C2)Cl)N)C3=NC=NC4=C3C=CN4
Method in brief: as §1

[10] = compound: C1COCCN1CCN2C3=CC=CC=C3N=C2NC(=O)C4=CC(=CC=C4)[N+](=O)[O-] [IRAK-1-4 Inhibitor I]
Method in brief: as §1

[11] = compound: C=CC(=O)N1CCC[C@@H](n2nc(-c3ccc(Oc4ccccc4)cc3)c3c(N)ncnc32)C1 [ibrutinib]
Method in brief: as §1

[12] = compound: CC(=O)c1cnc2ccc(-c3cc(Cl)c(O)c(Cl)c3)nc2c1N[C@H]1CC[C@H](CN(C)C)CC1
Method in brief: as §1

[13] = compound: CC(C)(C)Cn1c(N)nc2ccc(-c3[nH]c(C(C)(C)C)nc3-c3ccc(F)cc3)nc21 [ralimetinib]
Method in brief: as §1

[14] = compound: CC(C)(O)CC(=O)NCCn1ccc2ncnc(Nc3ccc(Oc4cccc(C(F)(F)F)c4)c(Cl)c3)c21
Method in brief: as §1

[15] = compound: CC(C)C1=C2N=C(C=C(N2N=C1)NCC3=CC=CC=C3)NCCCCCCN
Method in brief: as §1

[16] = compound: CC1=C(C(CC(=O)N1)C2=CC=C(C=C2)C(F)(F)F)C(=O)NC3=C(C=C4C(=C3)C=NN4)F
Method in brief: as §1

[17] = compound: CC1=C(C2=C(C=C1)C(=O)C3=CC=CC=C3N2CCCN)C
Method in brief: as §1

[18] = compound: CC1=C(C=C(C=C1)NC(=O)C2=CC(=CC=C2)C(C)(C)C#N)NC3=CC4=C(C=C3)N=CN(C4=O)C
Method in brief: as §1

[19] = compound: CC1=C(C=C(C=C1)NC(=O)C2=CC(=CC=C2)N(C)C)NC(=O)C3=CC=C(C=C3)O
Method in brief: as §1

[20] = compound: CC1=CC=C(C=C1)SC2=C3C=C(SC3=CN=C2)C(=O)N
Method in brief: as §1

Measured: log2 fold change

CCT6A (UniProt P40227)
inactive: [1] -0.016 | [2] -0.043 | [3] 0.002 | [4] 0.001 | [5] -0.008 | [6] 0.001 | [7] 0.019 | [8] 0.008 | [9] -0.022 | [10] -0.023 | [11] 0.017 | [12] -0.005 | [13] -0.007 | [14] 0.022 | [15] -0.013 | [16] -0.014 | [17] 0.003 | [18] -0.016 | [19] -0.014 | [20] 0.018

CAT (UniProt P04040)
inactive: [1] 0.007 | [2] 0.018 | [3] 0.027 | [4] -0.013 | [5] 0.019 | [6] 0.009 | [7] -0.005 | [8] 0.009 | [9] -0.003 | [10] 0.032 | [11] 0.015 | [12] 0.004 | [13] 0 | [14] -0.018 | [15] 0.031 | [16] -0.027 | [17] 0 | [18] 0.01 | [19] -0.022 | [20] -0.004

CCNH (UniProt P51946)
inactive: [1] 0.018 | [2] -0.018 | [3] 0.074 | [4] -0.055 | [5] -0.029 | [6] 0 | [7] -0.021 | [8] -0.047 | [9] 0.012 | [10] -0.005 | [11] 0.018 | [12] -0.149 | [13] -0.001 | [14] -0.064 | [15] -0.058 | [16] -0.044 | [17] -0.025 | [18] -0.044 | [19] 0.018 | [20] -0.016

CD47 (UniProt Q08722)
inactive: [1] -0.025 | [2] -0.017 | [3] 0.01 | [4] -0.048 | [5] 0 | [6] 0.008 | [7] -0.127 | [8] -0.006 | [9] 0.022 | [10] 0.002 | [11] -0.119 | [12] 0.003 | [13] 0.041 | [14] -0.016 | [15] -0.018 | [16] -0.087 | [17] -0.005 | [18] 0.061 | [19] -0.013 | [20] -0.017

CAVIN2 (UniProt O95810)
inactive: [1] -0.017 | [2] -0.049 | [3] 0.02 | [4] 0.02 | [5] -0.02 | [6] -0.005 | [7] 0.012 | [8] -0.018 | [9] -0.031 | [10] -0.007 | [11] 0.05 | [12] -0.008 | [13] 0.03 | [14] -0.018 | [15] 0.005 | [16] -0.01 | [17] 0.014 | [18] 0.039 | [19] 0.025 | [20] -0.014

CCS (UniProt O14618)
inactive: [1] -0.05 | [2] 0.037 | [3] 0.026 | [4] 0.017 | [5] -0.041 | [6] -0.026 | [7] -0.002 | [8] -0.012 | [9] -0.054 | [10] -0.01 | [11] 0.066 | [12] -0.013 | [13] 0.009 | [14] -0.01 | [15] -0.014 | [16] -0.014 | [17] 0.018 | [18] 0.01 | [19] -0.011 | [20] -0.017

CD55 isoform 7 (UniProt P08174)
inactive: [1] 0.003 | [2] 0.007 | [3] 0.11 | [4] -0.004 | [5] -0.026 | [6] -0.018 | [7] -0.013 | [8] 0.077 | [9] 0.099 | [10] 0.036 | [11] -0.008 | [12] -0.017 | [13] -0.04 | [14] -0.087 | [15] -0.004 | [16] -0.011 | [17] -0.026 | [18] 0.002 | [19] 0.007 | [20] 0.011

CASP8 isoform 9 (UniProt Q14790)
inactive: [1] 0.015 | [2] 0.171 | [3] 0.032 | [4] -0.036 | [5] 0.032 | [6] 0.006 | [7] 0.004 | [8] 0.006 | [9] 0.027 | [10] -0.009 | [11] 0.053 | [12] -0.009 | [13] 0.018 | [14] 0.022 | [15] -0.001 | [16] -0.012 | [17] 0.002 | [18] -0.023 | [19] 0.002 | [20] 0.023

CCDC88A (UniProt Q3V6T2)
inactive: [1] 0.003 | [2] 0.067 | [3] -0.003 | [4] -0.007 | [5] -0.02 | [6] 0.003 | [7] 0.019 | [8] 0.008 | [9] 0.017 | [10] -0.011 | [11] 0.005 | [12] 0.018 | [13] 0.006 | [14] -0.023 | [15] -0.012 | [16] 0.008 | [17] 0.008 | [18] -0.003 | [19] 0.012 | [20] -0.002

CCDC51 (UniProt Q96ER9)
inactive: [1] 0.03 | [2] -0.08 | [3] -0.047 | [4] -0.024 | [5] -0.005 | [6] 0.067 | [7] -0.07 | [8] 0.005 | [9] 0.029 | [10] -0.041 | [11] 0.056 | [12] 0.011 | [13] -0.012 | [14] 0.036 | [15] -0.011 | [16] 0.025 | [17] 0.011 | [18] -0.013 | [19] 0.033 | [20] 0.013

CCDC134 (UniProt Q9H6E4)
inactive: [1] -0.017 | [2] 0.051 | [3] 0.01 | [4] -0.022 | [5] -0.012 | [6] 0.013 | [7] -0.048 | [8] 0.006 | [9] 0.033 | [10] -0.017 | [11] 0.028 | [12] -0.001 | [13] 0.008 | [14] -0.02 | [15] -0.017 | [16] -0.005 | [17] 0.008 | [18] -0.05 | [19] -0.015 | [20] -0.008

CARD8 isoform 5 (UniProt Q9Y2G2)
inactive: [1] -0.062 | [2] 0.156 | [3] 0.039 | [4] -0.076 | [5] -0.104 | [6] 0.019 | [7] 0.008 | [8] 0.012 | [9] 0.063 | [10] 0.068 | [11] -0.024 | [12] -0.029 | [13] 0.007 | [14] -0.027 | [15] -0.012 | [16] 0.047 | [17] -0.028 | [18] -0.007 | [19] -0.019 | [20] -0.053

CASP2 (UniProt P42575)
inactive: [1] -0.016 | [2] -0.003 | [3] 0.016 | [4] -0.012 | [5] -0.002 | [6] 0.015 | [7] -0.006 | [8] 0.03 | [9] 0.015 | [10] 0.02 | [11] 0.064 | [12] 0.07 | [13] 0.028 | [14] -0.008 | [15] 0.007 | [16] 0.01 | [17] 0.009 | [18] -0.068 | [19] -0.049 | [20] -0.052

CD2BP2 (UniProt O95400)
inactive: [1] 0.024 | [2] -0.022 | [3] 0.005 | [4] -0.008 | [5] -0.016 | [6] 0.001 | [7] 0.038 | [8] 0.015 | [9] -0.008 | [10] -0.007 | [11] 0.012 | [12] -0.008 | [13] 0.016 | [14] -0.071 | [15] -0.021 | [16] 0.014 | [17] -0.012 | [18] -0.018 | [19] 0.043 | [20] 0.015

CCNK isoform 4 (UniProt O75909)
inactive: [1] -0.018 | [2] -0.022 | [3] -0.012 | [4] -0.016 | [5] -0.062 | [6] -0.039 | [7] -0.001 | [8] 0.01 | [9] 0.002 | [10] -0.021 | [11] 0.09 | [12] 0.007 | [13] 0.042 | [14] -0.01 | [15] 0.012 | [16] 0.015 | [17] -0.017 | [18] 0.024 | [19] -0.037 | [20] -0.007

CCDC50 isoform 2 (UniProt Q8IVM0)
inactive: [1] -0.085 | [2] 0.028 | [3] -0.103 | [4] -0.024 | [5] 0.02 | [6] 0.014 | [7] 0.072 | [8] 0.041 | [9] -0.013 | [10] -0.023 | [11] 0.068 | [12] 0.019 | [13] -0.014 | [14] 0.072 | [15] 0.002 | [16] 0.014 | [17] 0.066 | [18] -0.009 | [19] -0.008 | [20] 0.009

2 entries picked at random from the list so far, as already listed:
CARD8 isoform 5 (UniProt Q9Y2G2)
inactive: [1] -0.062 | [2] 0.156 | [3] 0.039 | [4] -0.076 | [5] -0.104 | [6] 0.019 | [7] 0.008 | [8] 0.012 | [9] 0.063 | [10] 0.068 | [11] -0.024 | [12] -0.029 | [13] 0.007 | [14] -0.027 | [15] -0.012 | [16] 0.047 | [17] -0.028 | [18] -0.007 | [19] -0.019 | [20] -0.053

CASP2 (UniProt P42575)
inactive: [1] -0.016 | [2] -0.003 | [3] 0.016 | [4] -0.012 | [5] -0.002 | [6] 0.015 | [7] -0.006 | [8] 0.03 | [9] 0.015 | [10] 0.02 | [11] 0.064 | [12] 0.07 | [13] 0.028 | [14] -0.008 | [15] 0.007 | [16] 0.01 | [17] 0.009 | [18] -0.068 | [19] -0.049 | [20] -0.052
